In article PMC12563870:
These are yes or no findings as the source states them, for the method shown. Binding seen in cells or lysates may run through a third protein. Some results given as binding are weak or reduced against the parent protein; the word gives no strength.

Chains of the proteins cited; added tags and fusions are not shown. Residues count along the entry.
UniProt Q9NZQ7, residues 19-290: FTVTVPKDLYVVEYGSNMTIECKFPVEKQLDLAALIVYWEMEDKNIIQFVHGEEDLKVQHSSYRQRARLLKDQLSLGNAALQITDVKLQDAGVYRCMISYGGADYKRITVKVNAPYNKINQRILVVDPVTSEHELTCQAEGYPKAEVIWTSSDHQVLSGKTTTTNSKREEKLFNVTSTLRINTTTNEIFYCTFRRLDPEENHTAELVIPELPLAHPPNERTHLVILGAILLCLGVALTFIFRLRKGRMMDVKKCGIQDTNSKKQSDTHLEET
UniProt Q9UKV5: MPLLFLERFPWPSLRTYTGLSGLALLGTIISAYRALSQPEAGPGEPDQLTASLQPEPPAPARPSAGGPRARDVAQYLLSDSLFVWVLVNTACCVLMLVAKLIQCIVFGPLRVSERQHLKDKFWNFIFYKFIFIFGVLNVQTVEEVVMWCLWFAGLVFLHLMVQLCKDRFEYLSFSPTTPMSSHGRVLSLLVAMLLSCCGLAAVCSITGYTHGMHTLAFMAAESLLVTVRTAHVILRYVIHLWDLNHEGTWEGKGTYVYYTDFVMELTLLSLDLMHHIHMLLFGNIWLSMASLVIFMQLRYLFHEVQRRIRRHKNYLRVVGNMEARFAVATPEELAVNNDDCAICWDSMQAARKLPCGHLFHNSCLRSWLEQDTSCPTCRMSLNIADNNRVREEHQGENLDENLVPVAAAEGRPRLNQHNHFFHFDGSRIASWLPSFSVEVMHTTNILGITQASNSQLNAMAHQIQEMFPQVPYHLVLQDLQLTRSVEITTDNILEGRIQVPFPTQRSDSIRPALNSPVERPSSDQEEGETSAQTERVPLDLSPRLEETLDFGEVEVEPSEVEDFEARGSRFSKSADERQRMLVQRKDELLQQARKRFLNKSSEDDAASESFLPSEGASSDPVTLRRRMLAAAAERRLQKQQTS

How the values were obtained:
[1] = target: PD-L1 in MDA231 cells (human) (UniProt Q9NZQ7); assay: co-IP; MDA231 cells; told only as similar results to the reciprocal co-IP in 293T cells; no figure named
[2] = target: PD-L1-FLAG (Programmed cell death ligand 1) (human) (UniProt Q9NZQ7); assay: co-IP; 293T cells cotransfected with PD-L1-FLAG and GP78-V5; 1X NP-40 lysis buffer, 500 ug lysate; IP with mouse V5 antibody on protein A/G agarose (GP78) or with M2 FLAG affinity gel (PD-L1); Western blot with anti-V5 and anti-FLAG
[3] = target: GP78 in MDA231 cells (human) (UniProt Q9UKV5); assay: co-IP; MDA231 cells; told only as similar results to the reciprocal co-IP in 293T cells; no figure named
[4] = target: GP78-V5 (full-length human GP78, E3 ubiquitin ligase) (human) (UniProt Q9UKV5); assay: co-IP; 293T cells cotransfected with PD-L1-FLAG and GP78-V5; 1X NP-40 lysis buffer, 500 ug lysate; IP with mouse V5 antibody on protein A/G agarose (GP78) or with M2 FLAG affinity gel (PD-L1); Western blot with anti-V5 and anti-FLAG

GP78 in MDA231 cells (from UniProt Q9UKV5 1-643) (enzyme)
binding [1]: binds

GP78-V5 (full-length human GP78, E3 ubiquitin ligase) (from UniProt Q9UKV5 1-643) (enzyme)
binding [2]: binds

PD-L1 in MDA231 cells (from UniProt Q9NZQ7 19-290) (ligand)
binding [3]: binds

PD-L1-FLAG (Programmed cell death ligand 1) (from UniProt Q9NZQ7 19-290)
binding [4]: binds
